# In article doi:10.1101/2020.02.12.946293:
# Positions count from the first letter of the chain named. In names and notes the source's numbering stands. No constants are given. Whether binding was seen depends on the method and setting. For some assays here: In cells and extracts the contact can be indirect. Some binding calls cover weakened binding; strength is not graded here. For some assays here: Sequences can lack the tags named with a protein.
# B1: hMSH4 (protein, UniProt O15457 1-936)
# chain: MLRPEISSTSPSAPAVSPSSGETRSPQGPRYNFGLQETPQSRPSVQVVSASTCPGTSGAAGDRSSSSSSLPCPAPNSRPAQGSYFGNKRAYAENTVASNFTFGASSSSARDTNYPQTLKTPLSTGNPQRSGYKSWTPQVGYSASSSSAISAHSPSVIVAVVEGRGLARGEIGMASIDLKNPQIILSQFADNTTYAKVITKLKILSPLEIIMSNTACAVGNSTKLFTLITENFKNVNFTTIQRKYFNETKGLEYIEQLCIAEFSTVLMEVQSKYYCLAAVAALLKYVEFIQNSVYAPKSLKICFQGSEQTAMIDSSSAQNLELLINNQDYRNNHTLFGVLNYTKTPGGSRRLRSNILEPLVDIETINMRLDCVQELLQDEELFFGLQSVISRFLDTEQLLSVLVQIPKQDTVNAAESKITNLIYLKHTLELVDPLKIAMKNCNTPLLRAYYGSLEDKRFGIILEKIKTVINDDARYMKGCLNMRTQKCYAVRSNINEFLDIARRTYTEIVDDIAGMISQLGEKYSLPLRTSFSSARGFFIQMTTDCIALPSDQLPSEFIKISKVKNSYSFTSADLIKMNERCQESLREIYHMTYMIVCKLLSEIYEHIHCLYKLSDTVSMLDMLLSFAHACTLSDYVRPEFTDTLAIKQGWHPILEKISAEKPIANNTYVTEGSNFLIITGPNMSGKSTYLKQIALCQIMAQIGSYVPAEYSSFRIAKQIFTRISTDDDIETNSSTFMKEMKEIAYILHNANDKSLILIDELGRGTNTEEGIGICYAVCEYLLSLKAFTLFATHFLELCHIDALYPNVENMHFEVQHVKNTSRNKEAILYTYKLSKGLTEEKNYGLKAAEVSSLPPSIVLDAKEITTQITRQILQNQRSTPEMERQRAVYHLATRLVQTARNSQLDPDSLRIYLSNLKKKYKEDFPRTEQVPEKTEE
# B2: hMSH4(G685A) (protein, UniProt O15457 1-936)
# chain: B1 chain with G685A
# B3: Mlh1-HA (protein, UniProt P38920 1-769)
# chain: MSLRIKALDASVVNKIAAGEIIISPVNALKEMMENSIDANATMIDILVKEGGIKVLQITDNGSGINKADLPILCERFTTSKLQKFEDLSQIQTYGFRGEALASISHVARVTVTTKVKEDRCAWRVSYAEGKMLESPKPVAGKDGTTILVEDLFFNIPSRLRALRSHNDEYSKILDVVGRYAIHSKDIGFSCKKFGDSNYSLSVKPSYTVQDRIRTVFNKSVASNLITFHISKVEDLNLESVDGKVCNLNFISKKSISPIFFINNRLVTCDLLRRALNSVYSNYLPKGNRPFIYLGIVIDPAAVDVNVHPTKREVRFLSQDEIIEKIANQLHAELSAIDTSRTFKASSISTNKPESLIPFNDTIESDRNRKSLRQAQVVENSYTTANSQLRKAKRQENKLVRIDASQAKITSFLSSSQQFNFEGSSTKRQLSEPKVTNVSHSQEAEKLTLNESEQPRDANTINDNDLKDQPKKKQKLGDYKVPSIADDEKNALPISKDGYIRVPKERVNVNLTSIKKLREKVDDSIHRELTDIFANLNYVGVVDEERRLAAIQHDLKLFLIDYGSVCYELFYQIGLTDFANFGKINLQSTNVSDDIVLYNLLSEFDELNDDASKEKIISKIWDMSSMLNEYYSIELVNDGLDNDLKSVKLKSLPLLLKGYIPSLVKLPFFIYRLGKEVDWEDEQECLDGILREIALLYIPDMVPKVDTSDASLSEDEKAQFINRKEHISSLLEHVLFPCIKRRFLAPRHILKDVVEIANLPDLYKVFERC
# B4: Mlh3-Myc (protein, UniProt Q12083 1-715)
# chain: MSQHIRKLDSDVSERLKSQACTVSLASAVREIVQNSVDAHATTIDVMIDLPNLSFAVYDDGIGLTRSDLNILATQNYTSKIRKMNDLVTMKTYGYRGDALYSISNVSNLFVCSKKKDYNSAWMRKFPSKSVMLSENTILPIDPFWKICPWSRTKSGTVVIVEDMLYNLPVRRRILKEEPPFKTFNTIKADMLQILVMHPMISLNVQYTDKLRINTEVLFRSKNITEGLTKHQQMSQVLRNVFGAIIPPDMLKKVSLKFNEYQIEGIISKMPVGLKDLQFIYINGRRYADSAFQGYVDSLFQAQDFGEKGMSLLKTKSVGKPYRSHPVFILDVRCPQTIDDLLQDPAKKIVKPSHIRTIEPLIVKTIRSFLTFQGYLTPDKSDSSFEIVNCSQKTATLPDSRIQISKRNQVLNSKMKIARINSYIGKPAVNGCRINNSTINYEKIKNIRIDGQKSRLRNKLSSRPYDSGFTEDYDSIGKTITDFSISRSVLAKYEVINQVDKKFILIRCLDQSIHNCPLLVLVDQHACDERIRLEELFYSLLTEVVTGTFVARDLKDCCIEVDRTEADLFKHYQSEFKKWGIGYETIEGTMETSLLEIKTLPEMLTSKYNGDKDYLKMVLLQHAHDLKDFKKLPMDLSHFENYTSVDKLYWWKYSSCVPTVFHEILNSKACRSAVMFGDELTRQECIILISKLSRCHNPFECAHGRPSMVPIAELK
# Tests used:
# hMSH5(G597A) (human) = target: T1, hMSH5(G597A) (human) (UniProt O43196); test: co-purification by tandem affinity
# T1 sequence: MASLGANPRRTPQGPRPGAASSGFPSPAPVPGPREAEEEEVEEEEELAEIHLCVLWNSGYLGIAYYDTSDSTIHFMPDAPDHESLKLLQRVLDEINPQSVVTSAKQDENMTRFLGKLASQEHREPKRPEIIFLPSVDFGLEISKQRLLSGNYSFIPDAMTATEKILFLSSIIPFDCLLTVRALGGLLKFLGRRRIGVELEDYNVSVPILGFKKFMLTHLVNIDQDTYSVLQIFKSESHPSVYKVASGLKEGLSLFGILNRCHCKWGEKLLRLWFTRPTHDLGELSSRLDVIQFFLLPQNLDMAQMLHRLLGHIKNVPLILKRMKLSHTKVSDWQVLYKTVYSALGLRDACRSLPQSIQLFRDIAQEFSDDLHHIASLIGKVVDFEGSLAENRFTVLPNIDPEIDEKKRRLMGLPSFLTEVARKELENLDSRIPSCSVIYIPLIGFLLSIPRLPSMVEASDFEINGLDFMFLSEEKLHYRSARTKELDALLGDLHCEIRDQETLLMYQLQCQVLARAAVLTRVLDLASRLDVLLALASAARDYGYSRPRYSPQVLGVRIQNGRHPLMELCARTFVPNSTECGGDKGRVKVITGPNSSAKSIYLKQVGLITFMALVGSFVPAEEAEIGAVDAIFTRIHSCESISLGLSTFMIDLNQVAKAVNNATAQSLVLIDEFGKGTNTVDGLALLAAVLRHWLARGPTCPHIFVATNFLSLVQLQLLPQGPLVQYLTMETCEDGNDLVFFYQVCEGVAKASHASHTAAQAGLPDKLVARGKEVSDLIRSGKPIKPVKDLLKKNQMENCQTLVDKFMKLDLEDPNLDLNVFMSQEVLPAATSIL
# hMSH5 (human) = target: T2, hMSH5 (human) (UniProt O43196); test: co-purification by tandem affinity
# T2 sequence: T1 sequence with A597G
# [1] = target: T3, Rfc1-TAP (S. cerevisiae (endogenous in SK1 strains)) (UniProt P38630); test: co-IP
# T3 sequence: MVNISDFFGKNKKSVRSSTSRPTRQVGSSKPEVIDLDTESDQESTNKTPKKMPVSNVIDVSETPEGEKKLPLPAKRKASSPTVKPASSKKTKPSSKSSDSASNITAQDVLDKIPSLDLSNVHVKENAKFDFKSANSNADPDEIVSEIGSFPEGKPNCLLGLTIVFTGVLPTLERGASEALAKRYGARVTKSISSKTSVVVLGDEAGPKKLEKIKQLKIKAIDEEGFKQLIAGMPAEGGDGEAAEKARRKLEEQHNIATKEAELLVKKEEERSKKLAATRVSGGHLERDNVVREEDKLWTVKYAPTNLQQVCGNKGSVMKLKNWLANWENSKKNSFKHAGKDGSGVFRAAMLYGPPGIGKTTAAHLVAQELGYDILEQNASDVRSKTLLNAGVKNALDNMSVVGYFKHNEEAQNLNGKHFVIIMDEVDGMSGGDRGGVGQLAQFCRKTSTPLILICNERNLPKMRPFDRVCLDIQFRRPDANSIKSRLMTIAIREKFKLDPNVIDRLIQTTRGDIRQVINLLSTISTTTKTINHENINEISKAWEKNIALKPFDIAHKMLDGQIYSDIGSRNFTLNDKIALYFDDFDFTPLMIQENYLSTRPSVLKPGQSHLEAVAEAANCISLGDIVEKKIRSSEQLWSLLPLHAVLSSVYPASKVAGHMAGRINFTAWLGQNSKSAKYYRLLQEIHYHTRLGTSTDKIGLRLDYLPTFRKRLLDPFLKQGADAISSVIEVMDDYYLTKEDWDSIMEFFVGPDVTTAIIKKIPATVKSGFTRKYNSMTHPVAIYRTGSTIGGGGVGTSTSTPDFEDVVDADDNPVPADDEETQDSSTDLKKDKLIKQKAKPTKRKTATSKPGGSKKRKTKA
Binder,binding (hMSH5(G597A) (human)),binding (hMSH5 (human)),binding [1]
B1,binds,binds,
B2,,binds,
B3,,,binds
B4,,,binds
